Reference: the supplement of paper PMC11348887
Where a name gives a salt, the structure may show the parent alone. The list shows a part of the results. Most entries show no effect beyond the scatter of the controls.

Experiments:
Conditions in all cases: 5 µM; treatment: days 7-14 after plating, readout day 21
[1] = tested on: hPSC-derived cortical neurons (WA09); experiment: nucleus area z-score vs screen plate; higher = larger nuclei (more mature)
[2] = tested on: hPSC-derived cortical neurons (WA09); experiment: total neurite length per nucleus (MAP2) z-score; higher = more neurite growth
[3] = tested on: hPSC-derived cortical neurons (WA09); experiment: nucleus roundness z-score vs screen plate; higher = rounder nuclei (more mature)
[4] = tested on: hPSC-derived cortical neurons (WA09); experiment: KCl-induced FOS+/EGR-1+ double-positive nuclei fraction z-score (KCl minus unstimulated); higher = stronger activity-induced IEG response

Compound | nucleus area z-score [1] | total neurite length per nucleus (z-score) [2] | nucleus roundness z-score [3] | KCl-induced FOS+/EGR-1+ double-positive nuclei fraction z-score [4]
O=C(Nc1ccccc1C(=O)NC1CCCCNC1=O)c1cc2ccccc2s1 (configuration not stated) | -0.21 | 0.0558 | 0.419 | 0.346
CCN(CC)CCOC(=O)C1(C2CCCCC2)CCCCC1 [Dicyclomine HCl] | 1.75 | -0.558 | -0.0144 | 0.0738
C[C@@H](Nc1cc(F)cc(F)c1)c1cc(C(=O)N(C)C)cc2c(=O)cc(N3CCOCC3)oc12 | -1.73 | -0.548 | 0.225 | -0.128
Cc1ccc(Nc2nccc(N(C)c3ccc4c(C)n(C)nc4c3)n2)cc1S(N)(=O)=O | 0.0454 | 1.74 | 0.165 | 2.07
NC(=O)OCC(COC(N)=O)c1ccccc1 [Felbamate] | 0.0208 | -0.242 | -0.00571 | 1.49
CN(C)CC/C=C1/c2ccccc2Sc2ccc(Cl)cc21 [Chlorprothixene] | -0.835 | -0.247 | -0.392 | -0.866
COc1cc2nc(N3CCN(C(=O)C4COc5ccccc5O4)CC3)nc(N)c2cc1OC (configuration not stated) [Doxazosin Mesylate] | 0.487 | -0.509 | 0.484 | -0.626
CN(C)CCCN1c2ccccc2CCc2ccc(Cl)cc21 [Clomipramine HCl] | -0.122 | -2.65 | -1.42 | -0.479
CN[C@@H](C)C(=O)N[C@H]1CN(C(=O)CC(C)C)CC[C@H]2CC[C@@H](C(=O)NC(c3ccccc3)c3ccccc3)N2C1=O | -0.134 | -0.503 | -0.772 | -0.364
CC(C)N(CCC(=O)c1ccc2ccccc2c1)Cc1ccccc1 | -10.7 | -3.97 | -5.72 | -0.552
CNC(=O)c1ccccc1Oc1nc(Nc2cc(OC)c(OC)c(OC)c2)ncc1Br | -0.85 | 0.775 | 0.0394 | -0.525
C[C@H](NC(=O)Cc1cc(F)cc(F)c1)C(=O)N[C@H](C(=O)OC(C)(C)C)c1ccccc1 | 0.00954 | -0.0175 | 0.502 | 0.197
N#Cc1c(O)c2c(-c3ccc(-c4ccccc4O)cc3)csc2[nH]c1=O | -0.0955 | 0.618 | 0.484 | 0.802
C=CC(=O)Nc1ccc2ncnc(Nc3ccc(OCc4cccc(F)c4)c(Cl)c3)c2c1 | -4.09 | -1.37 | -2.94 | -2.84
COc1ccc2[nH]cc(CCNC(C)=O)c2c1 [Melatonin] | 0.0196 | 0.19 | -0.373 | 1.58
C[C@]12C=CC(=O)C=C1CC[C@@H]1[C@@H]2[C@@H](O)C[C@@]2(C)[C@H]1CC[C@]2(O)C(=O)CO [Prednisolone] | 0.211 | 0.00676 | 0.115 | 1.22
COC(=O)Nc1nc2cc(Sc3ccccc3)ccc2[nH]1 [Fenbendazole] | -0.61 | -0.199 | -0.299 | 0.586
CN[C@H](CC(C)C)C(=O)N[C@H]1C(=O)N[C@@H](CC(N)=O)C(=O)N[C@H]2C(=O)N[C@H]3C(=O)N[C@H](C(=O)N[C@H](C(=O)O)c4cc(O)cc(O)c4-c4cc3ccc4O)[C@H](O)c3ccc(c(Cl)c3)Oc3cc2cc(c3O[C@@H]2O[C@H](CO)[C@@H](O)[C@H](O)[C@H]2O[C@H]2C[C@](C)(N)[C@H](O)[C@H](C)O2)Oc2ccc(cc2Cl)[C@H]1O [Vancomycin HCl] | -0.586 | -0.315 | -0.331 | 0.425
O=C(O)[C@H]1O[C@@H](Oc2cc3oc(-c4ccccc4)cc(=O)c3c(O)c2O)[C@H](O)[C@@H](O)[C@@H]1O [Baicalin] | 0.382 | -0.215 | -0.43 | 0.0329
CC1(C)Cc2c(-c3ccccc3)c(-c3ccc(Cl)cc3)c(CC(=O)O)n2C1 [Licofelone] | -0.722 | -0.571 | 0.291 | -0.0523

Not a retest: an excerpt of the list.
Compound | nucleus area z-score [1] | total neurite length per nucleus (z-score) [2] | nucleus roundness z-score [3] | KCl-induced FOS+/EGR-1+ double-positive nuclei fraction z-score [4]
NC(=O)OCC(COC(N)=O)c1ccccc1 [Felbamate] | 0.0208 | -0.242 | -0.00571 | 1.49
CN(C)CC/C=C1/c2ccccc2Sc2ccc(Cl)cc21 [Chlorprothixene] | -0.835 | -0.247 | -0.392 | -0.866
COc1cc2nc(N3CCN(C(=O)C4COc5ccccc5O4)CC3)nc(N)c2cc1OC (configuration not stated) [Doxazosin Mesylate] | 0.487 | -0.509 | 0.484 | -0.626
CN(C)CCCN1c2ccccc2CCc2ccc(Cl)cc21 [Clomipramine HCl] | -0.122 | -2.65 | -1.42 | -0.479
CN[C@@H](C)C(=O)N[C@H]1CN(C(=O)CC(C)C)CC[C@H]2CC[C@@H](C(=O)NC(c3ccccc3)c3ccccc3)N2C1=O | -0.134 | -0.503 | -0.772 | -0.364
CC(C)N(CCC(=O)c1ccc2ccccc2c1)Cc1ccccc1 | -10.7 | -3.97 | -5.72 | -0.552
CNC(=O)c1ccccc1Oc1nc(Nc2cc(OC)c(OC)c(OC)c2)ncc1Br | -0.85 | 0.775 | 0.0394 | -0.525
C[C@H](NC(=O)Cc1cc(F)cc(F)c1)C(=O)N[C@H](C(=O)OC(C)(C)C)c1ccccc1 | 0.00954 | -0.0175 | 0.502 | 0.197
N#Cc1c(O)c2c(-c3ccc(-c4ccccc4O)cc3)csc2[nH]c1=O | -0.0955 | 0.618 | 0.484 | 0.802
C=CC(=O)Nc1ccc2ncnc(Nc3ccc(OCc4cccc(F)c4)c(Cl)c3)c2c1 | -4.09 | -1.37 | -2.94 | -2.84
COc1ccc2[nH]cc(CCNC(C)=O)c2c1 [Melatonin] | 0.0196 | 0.19 | -0.373 | 1.58
C[C@]12C=CC(=O)C=C1CC[C@@H]1[C@@H]2[C@@H](O)C[C@@]2(C)[C@H]1CC[C@]2(O)C(=O)CO [Prednisolone] | 0.211 | 0.00676 | 0.115 | 1.22
COC(=O)Nc1nc2cc(Sc3ccccc3)ccc2[nH]1 [Fenbendazole] | -0.61 | -0.199 | -0.299 | 0.586
CN[C@H](CC(C)C)C(=O)N[C@H]1C(=O)N[C@@H](CC(N)=O)C(=O)N[C@H]2C(=O)N[C@H]3C(=O)N[C@H](C(=O)N[C@H](C(=O)O)c4cc(O)cc(O)c4-c4cc3ccc4O)[C@H](O)c3ccc(c(Cl)c3)Oc3cc2cc(c3O[C@@H]2O[C@H](CO)[C@@H](O)[C@H](O)[C@H]2O[C@H]2C[C@](C)(N)[C@H](O)[C@H](C)O2)Oc2ccc(cc2Cl)[C@H]1O [Vancomycin HCl] | -0.586 | -0.315 | -0.331 | 0.425
O=C(O)[C@H]1O[C@@H](Oc2cc3oc(-c4ccccc4)cc(=O)c3c(O)c2O)[C@H](O)[C@@H](O)[C@@H]1O [Baicalin] | 0.382 | -0.215 | -0.43 | 0.0329
CC1(C)Cc2c(-c3ccccc3)c(-c3ccc(Cl)cc3)c(CC(=O)O)n2C1 [Licofelone] | -0.722 | -0.571 | 0.291 | -0.0523

Carrying on.

Compound | nucleus area z-score [1] | total neurite length per nucleus (z-score) [2] | nucleus roundness z-score [3] | KCl-induced FOS+/EGR-1+ double-positive nuclei fraction z-score [4]
N#Cc1cc(CN2CCC(Nc3ncnc4sc(Cl)cc34)CC2)ccc1F | -0.533 | 0.799 | 0.608 | 0.261
CCc1nc(-c2cccc(C)c2)c(-c2ccnc(NC(=O)c3ccccc3)c2)s1 | 1.19 | -0.503 | -0.305 | 0.48
CN1[C@@H]2CC[C@H]1C[C@@H](OC(=O)c1c[nH]c3ccccc13)C2 [Tropisetron] | -0.677 | 0.626 | 0.814 | 2.45
CCCCOc1ccc(C(=O)CCN2CCCCC2)cc1 [Dyclonine HCl] | -0.747 | -0.577 | 1.19 | 1.35
O=c1c(O)c(-c2ccc(O)c(O)c2)oc2cc(O)cc(O)c12 [Quercetin] | 0.0123 | 0.34 | -0.0551 | 1.17
COc1ccccc1OCCNCC(O)COc1cccc2[nH]c3ccccc3c12 (configuration not stated) [Carvedilol] | 1.34 | -0.514 | -1.16 | 3.71
COc1ccccc1N1CCN(CC(O)COc2cccc3ccccc23)CC1 (configuration not stated) [Naftopidil] | -0.369 | 0.621 | 0.0981 | -0.786
COc1ccc2ccc(=O)oc2c1CC=C(C)C [Osthole] | 0.0248 | 1.08 | 0.526 | -1.08
OCc1c[nH]c2ccccc12 [Indole-3-carbinol] | -0.559 | -0.927 | -1.28 | -1.8
CC(S)C(=O)NCC(=O)O (configuration not stated) [Tiopronin] | 0.116 | 0.548 | 0.0442 | 0.18
Nc1ccc(C(=O)NCC(=O)O)cc1 [Sodium 4-aminohippurate Hydrate] | -0.136 | 1.35 | 1.67 | 1.02
CCOC(=O)OC(C)OC1=C(C(=O)Nc2ccccn2)N(C)S(=O)(=O)c2ccccc21 (configuration not stated) [Ampiroxicam] | 0.965 | 0.0656 | -0.52 | -0.248
Cc1ccc(NC(=O)C2(c3ccc4c(c3)OC(F)(F)O4)CC2)nc1-c1cccc(C(=O)O)c1 [VX-809 (Lumacaftor)] | 1 | -1.03 | 0.00757 | 0.00074
CCNC(=O)c1[nH]nc(-c2cc(Cl)c(O)cc2O)c1-c1ccc(OC)cc1 | 4.39 | 4.59 | -2.62 | -1.64
CCN(CC)C(=O)N1CCN(C)CC1 [Diethylcarbamazine citrate] | -0.146 | 0.139 | -0.216 | 1.83
CC(=O)[C@@]1(O)CC[C@H]2[C@@H]3CCC4=CC(=O)CCC4=C3[C@@H](c3ccc(N(C)C)cc3)C[C@@]21C [Ulipristal] | 0.399 | 0.117 | 0.287 | 0.411
Fc1cc(-c2cccc3ncc(-c4cnn(C5CCNCC5)c4)nc23)cc(F)c1CN1CCOCC1 | -14.5 | -5.66 | -5.91 | -0.937
C/C(=N\NC(=O)c1cccc(S(=O)(=O)N2CCOCC2)c1)c1cc(Cl)ccc1O | 0.454 | 0.689 | 0.564 | 0.618
CC(C)CCNC(=O)[C@H](CC(C)C)NC(=O)[C@H]1O[C@@H]1C(=O)O [Loxistatin Acid (E-64C)] | -0.267 | 0.692 | 0.361 | -0.058
O=C(N/N=C/c1ccc(O)c(O)c1)c1cc2ccccc2cc1O [Dynasore] | -0.382 | -0.27 | 0.397 | -0.0182

Compound | nucleus area z-score [1] | total neurite length per nucleus (z-score) [2] | nucleus roundness z-score [3] | KCl-induced FOS+/EGR-1+ double-positive nuclei fraction z-score [4]
O=C(Nc1cccc(Nc2ncc(Br)c(NCCc3cnc[nH]3)n2)c1)N1CCCC1 | 0.888 | 0.578 | -0.286 | -0.731
Cc1nc2c(O)cccc2c(=O)[nH]1 | 1.31 | -1.6 | -1.24 | -0.359
CC(C)(O)[C@H]1CC[C@@](C)([C@H]2[C@@H](O)C[C@@]3(C)[C@@H]4C[C@H](O[C@@H]5O[C@H](CO)[C@@H](O)[C@H](O)[C@H]5O)[C@H]5C(C)(C)[C@@H](O[C@@H]6OC[C@@H](O)[C@H](O)[C@H]6O)CC[C@@]56C[C@@]46CC[C@]23C)O1 [Astragaloside A] | 0.766 | 1.12 | 0.953 | 3.38
CN(C)Cc1cccc(N/C(=C2\C(=O)Nc3cc(C(N)=O)ccc32)c2ccccc2)c1 | -0.0564 | -0.371 | -1.25 | -0.917
CCCCOC(=O)c1ccc(N)cc1 [Butamben] | 0.101 | 0.52 | 0.11 | 0.687
COc1ccc(C(=O)CC2(O)C(=O)Nc3c(Cl)ccc(Cl)c32)cc1 (configuration not stated) | -0.893 | -0.826 | -1.41 | -1.17
Cc1cnc(C(=O)O)c[n+]1[O-] [Acipimox] | -0.698 | 0.0995 | 0.389 | -0.258
Nc1ccn([C@@H]2O[C@H](CO)[C@@H](O)C2(F)F)c(=O)n1 [Gemcitabine] | -1.68 | 0.719 | 1.76 | -1.12
FC(F)(F)c1ccc(CNc2ccc(Cc3c[nH]c4ncc(Cl)cc34)cn2)cn1 [Pexidartinib (PLX3397)] | 0.486 | 0.175 | -0.0326 | 0.511
Cc1nc(-c2cccnc2)sc1C(=O)Nc1ccccc1-c1cn2c(CN3CCOCC3)csc2n1 | -0.429 | -0.502 | -0.409 | 0.399
Cc1c(-c2ccc(O)cc2)n(Cc2ccc(OCCN3CCCCCC3)cc2)c2ccc(O)cc12 [Bazedoxifene Acetate] | -15.4 | -5.92 | -6.44 | -0.521
CS(=O)(=O)CCNCc1ccc(-c2ccc3ncnc(Nc4ccc(OCc5cccc(F)c5)c(Cl)c4)c3c2)o1 | -0.656 | -0.909 | -0.541 | 1.48
O.O.O.O.O=C([O-])CC(O)(CC(=O)[O-])C(=O)[O-].[Li+].[Li+].[Li+] [Citric acid trilithium salt tetrahydrate] | -0.551 | 0.266 | 1.02 | 1.24
COc1ccc2cc3[n+](cc2c1OC)CCc1cc2c(cc1-3)OCO2 [Berberine HCl] | -8.2 | -3.65 | -4.69 | -1.49
O=C1C[C@@H](c2ccc(O)cc2)Oc2cc(O)cc(O)c21 [Naringenin] | 0.187 | 0.299 | 1.29 | 1.6
OCCn1cc(-c2ccc3c(c2)CC/C3=N\O)c(-c2ccncc2)n1 | 0.604 | -0.897 | -1.55 | -1.19
CNC(=O)CN(CCN(CCN(CC(=O)[O-])CC(=O)NC)CC(=O)[O-])CC(=O)[O-].O.[Gd+3] [Gadodiamide Hydrate] | -0.0529 | -0.209 | -0.602 | 1.5
Cc1c(Nc2ncccc2C(=O)O)cccc1C(F)(F)F [Flunixin Meglumin] | -0.313 | 0.00361 | 0.349 | -0.88
